Laboratory results: PubChem BioAssay AID652243 (Drosophila RNAi Screening Center, 2013)
In all, the deposit lists about 24,000 reagents; shown is a random part of those that have a named target and a result. Of all reagents, 246 (1%) were called active. 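Plates not normalised; calls are printed but the firefly/Renilla ratio behind them is not deposited; fold cut for lowering reported inconsistently.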 Raw values vary from plate to plate and are shown uncorrected. A plus sign joins genes that one reagent is predicted to hit. The record does not give: the amount of reagent.

Screen: 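Fly genes required for human androgen receptor driven transcription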 (primary screen)
Cell system: Drosophila S2R+ cells
Reagents: long dsRNA against Drosophila genes
Duration: 72 h (48 h, then 24 h hormone)
Challenge: synthetic androgen R1881 at 10 nM for 24 h
Measurement: 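Firefly light from an androgen-responsive reporter and Renilla control light per well, raw and unnormalised, for each of two replicates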
Scale: firefly reporter light: higher = more light from androgen-responsive reporter; Renilla control light: higher = more constitutive control signal (cell number, transfection)
Call rule: 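Hit when the log firefly-to-Renilla ratio dropped or increased by a fixed fold versus the mean of GFP or LacZ controls across duplicate plates; lowering cut given as 1.5 and as 3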
Calls: active = hit: reporter lowered or raised; inactive = no hit

| Gene | amplicon | firefly reporter light, replicate 1 | firefly reporter light, replicate 2 | Renilla control light, replicate 1 | Renilla control light, replicate 2 | Outcome |
| --- | --- | --- | --- | --- | --- | --- |
| CG42823 | DRSC37837 | 9.97e5 | 9.63e5 | 1.76e6 | 1.98e6 | inactive |
| CG17192 | DRSC15186 | 1.42e5 | 1.89e5 | 1.39e6 | 1.91e6 | inactive |
| CG17192 | DRSC24691 | 9.11e5 | 9.24e5 | 8.49e5 | 7.31e5 | inactive |
| CG4074 | DRSC11752 | 1.58e5 | 1.61e5 | 1.51e6 | 1.56e6 | inactive |
| CG4074 | DRSC29915 | 6.23e5 | 4.17e5 | 1.34e6 | 1.51e6 | inactive |
| CG15653 | DRSC04244 | 3.21e5 | 3.45e5 | 2.03e6 | 1.62e6 | inactive |
| CG41281 (retired record) | DRSC38734 | 8.86e5 | 8.01e5 | 1.78e6 | 2.37e6 | inactive |
| wnd (wallenda) | DRSC09626 | – | – | – | – | inactive |
| wnd (wallenda) | DRSC11046 | 41594 | 34868 | 1.91e5 | 1.82e5 | active |
| wnd (wallenda) | DRSC21373 | 1.01e6 | 1.05e6 | 2.60e6 | 1.91e6 | inactive |
| wnd (wallenda) | DRSC37069 | – | – | – | – | inactive |
| dtr (defective transmitter release) | DRSC01847 | 3.27e5 | 4.29e5 | 7.98e5 | 6.60e5 | inactive |
| CG7099 | DRSC03006 | 9.98e5 | 1.16e6 | 1.78e6 | 1.91e6 | inactive |
| CG7099 | DRSC27321 | 3.25e5 | 2.64e5 | 5.37e5 | 6.66e5 | inactive |
| cv (crossveinless) | DRSC17833 | 2.78e5 | 4.00e5 | 3.22e6 | 3.47e6 | inactive |
| Culd (CUB and LDLa domain) | DRSC10262 | 7.46e5 | 1.29e6 | 1.10e6 | 2.17e6 | inactive |
| okr (okra) | DRSC00834 | 8.92e5 | 8.67e5 | 2.21e6 | 1.80e6 | inactive |
| okr (okra) | DRSC24838 | 3.97e5 | 4.25e5 | 3.47e5 | 4.33e5 | inactive |
| RunxA (Runt related A) | DRSC20498 | 57483 | 81604 | 3.13e5 | 1.85e5 | inactive |
| RunxA (Runt related A) | DRSC20524 | 6.13e5 | 6.01e5 | 2.82e6 | 3.23e6 | inactive |
| RunxA (Runt related A) | DRSC21915 | 5.33e5 | 5.96e5 | 2.15e6 | 2.23e6 | inactive |
| RunxA (Runt related A) | DRSC25225 | 6.90e5 | 6.80e5 | 9.42e5 | 7.83e5 | inactive |
| RunxA (Runt related A) | DRSC27250 | 2.13e5 | 2.21e5 | 6.22e5 | 6.22e5 | inactive |
| CG42372 + CG30100 | DRSC05602 | 86726 | 2.04e5 | 2.42e5 | 3.88e5 | inactive |
| Smox (Smad on X) | DRSC23488 | 3.87e5 | 2.07e5 | 1.04e6 | 4.47e5 | inactive |
| Ass + CG31286 | DRSC12493 | 70513 | 75507 | 1.70e6 | 1.64e6 | inactive |
| CG15888 | DRSC15125 | 1.06e5 | 1.29e5 | 1.38e6 | 1.76e6 | inactive |
| CG15888 | DRSC26530 | 2.58e5 | 2.18e5 | 6.38e5 | 6.50e5 | inactive |
| heix (heixuedian) | DRSC03542 | 8.19e5 | 9.06e5 | 8.16e5 | 1.16e6 | inactive |
| CG10584 | DRSC11624 | 2.73e5 | 2.63e5 | 3.42e6 | 3.24e6 | inactive |
| Arc42 (Activator-recruited cofactor subunit 42) | DRSC14340 | 3.16e5 | 2.62e5 | 2.71e6 | 2.75e6 | inactive |
| Arc42 (Activator-recruited cofactor subunit 42) | DRSC15627 | 4.90e5 | 3.99e5 | 2.22e6 | 2.30e6 | inactive |
| Hem (HEM-protein) | DRSC11865 | 13899 | 35557 | 2.81e5 | 2.76e5 | inactive |
| CG14265 | DRSC18591 | 2.50e5 | 2.34e5 | 3.68e6 | 3.59e6 | inactive |
| CG14265 | DRSC29212 | 5.12e5 | 5.81e5 | 1.07e6 | 9.98e5 | inactive |
| NijB (Ninjurin B) | DRSC09850 | 5.14e5 | 5.58e5 | 3.62e6 | 5.10e6 | inactive |
| CG5447 | DRSC15801 | 2.38e5 | 2.13e5 | 3.12e6 | 3.06e6 | inactive |
| CG5447 | DRSC26407 | 3.35e5 | 2.16e5 | 7.34e5 | 5.09e5 | inactive |
| CG16896 | DRSC04284 | 1.09e6 | 9.27e5 | 1.09e6 | 1.38e6 | inactive |
| Rgl (Ral guanine nucleotide dissociation stimulator-like) | DRSC11267 | 2.74e5 | 2.22e5 | 2.74e6 | 1.87e6 | inactive |
| CG7320 | DRSC10810 | 2.36e5 | 1.54e5 | 2.33e6 | 1.73e6 | inactive |
| CG7320 | DRSC26050 | 3.36e5 | 3.59e5 | 5.26e5 | 5.96e5 | inactive |
| DIP1 (DISCO Interacting Protein 1) | DRSC20818 | 4.87e5 | 6.17e5 | 1.27e6 | 1.39e6 | inactive |
| DIP1 (DISCO Interacting Protein 1) | DRSC27354 | 2.32e5 | 2.00e5 | 6.27e5 | 5.87e5 | inactive |
| CG8547 | DRSC07211 | 7.64e5 | 8.26e5 | 2.07e6 | 2.28e6 | inactive |
| CG8547 | DRSC28818 | 3.94e5 | 4.05e5 | 1.45e6 | 1.74e6 | inactive |
| N (Notch) | DRSC18685 | 2.96e5 | 2.17e5 | 3.69e6 | 2.14e6 | inactive |
| N (Notch) | DRSC39108 | 4.25e5 | 5.21e5 | 1.57e6 | 1.97e6 | inactive |
| CG42699 | DRSC18076 | 41922 | 37313 | 7.12e5 | 3.00e5 | inactive |
| CG42699 | DRSC18341 | 1.32e5 | 1.22e5 | 3.76e6 | 3.02e6 | inactive |
| CG42699 | DRSC25221 | 6.28e5 | 8.91e5 | 8.37e5 | 1.05e6 | inactive |
| CG5853 | DRSC01103 | 2.32e5 | 2.08e5 | 2.26e5 | 2.36e5 | inactive |
| CG5853 | DRSC02906 | 1.43e6 | 9.79e5 | 3.04e6 | 2.71e6 | inactive |
| Zip89B (Zinc/iron regulated transporter-related protein 89B) | DRSC16128 | 66186 | 1.09e5 | 1.41e6 | 1.80e6 | inactive |
| Zip89B (Zinc/iron regulated transporter-related protein 89B) | DRSC29691 | 6.34e5 | 5.50e5 | 1.77e6 | 1.64e6 | inactive |
| snoRNA:660 + Act57B | DRSC23472 | 9.16e5 | 6.68e5 | 7.93e5 | 5.64e5 | inactive |
| CG13247 | DRSC11695 | 2.78e5 | 2.54e5 | 3.06e6 | 1.87e6 | inactive |
| Gp93 (Glycoprotein 93) | DRSC15827 | 99677 | 67632 | 7.32e5 | 6.03e5 | inactive |
| Gp93 (Glycoprotein 93) | DRSC27798 | 3.64e5 | 3.23e5 | 8.38e5 | 9.86e5 | inactive |
| disco (disconnected) | DRSC20323 | 5.23e5 | 4.99e5 | 4.60e6 | 3.34e6 | inactive |
| disco (disconnected) | DRSC25113 | 5.26e5 | 3.99e5 | 4.02e5 | 3.64e5 | inactive |
| CG34355 | DRSC13639 | 3.71e5 | 3.03e5 | 3.16e6 | 2.27e6 | inactive |
| CG34355 | DRSC14520 | 2.17e5 | 2.35e5 | 2.96e6 | 2.59e6 | inactive |
| CG34355 | DRSC14668 | 2.14e5 | 2.11e5 | 2.09e6 | 2.72e6 | inactive |
| CG34355 | DRSC21687 | 5.65e5 | 5.81e5 | 2.28e6 | 2.70e6 | inactive |
| CG14220 | DRSC19577 | 59437 | 57986 | 2.56e5 | 2.05e5 | inactive |
| CG14220 | DRSC26345 | 2.80e5 | 1.98e5 | 5.88e5 | 7.55e5 | inactive |
| CG31948 | DRSC00740 | 79972 | 45903 | 6.94e5 | 5.24e5 | inactive |
| CG42322 | DRSC15112 | 92933 | 85105 | 5.86e5 | 9.50e5 | inactive |
| CG42322 | DRSC15113 | 2.48e5 | 3.11e5 | 3.14e6 | 3.14e6 | inactive |
| CG42322 | DRSC24976 | 7.95e5 | 7.27e5 | 9.11e5 | 8.49e5 | inactive |
| Or92a (Odorant receptor 92a) | DRSC16771 | 2.04e5 | 3.13e5 | 3.14e6 | 2.77e6 | inactive |
| CG7910 | DRSC16341 | 1.34e5 | 1.08e5 | 2.68e6 | 2.40e6 | inactive |
| CG32053 | DRSC10683 | 1.31e6 | 1.01e6 | 1.58e6 | 1.79e6 | inactive |
